The campaign covered roughly 300,000 compounds. About 3,700 (1.2%) were called active. Inconclusive means that the source gave no clear call. Such entries were picked first, then a sample of the others. Calls follow the shape of the full dose curve; tested in HEK293 cells. Potencies beside an inconclusive call are fits to weak or partial responses and may not hold up.
Assay: qHTS for Inhibitors of binding or entry into cells for Lassa Virus; also: nearly all actives have a fitted effect of over 50% in size
Settings: Lassa virus pseudotype entry inhibition, cell reporter; activity change, negative = inhibition: at 37.9 µM (top of the series) unless noted
% is scaled to controls: 0 for no effect and ±100 for the full control effect; potency is read from the fitted curve at half-maximal effect.

Row | Compound | Potency | activity change, negative = inhibition
1 | CCN(CC)S(=O)(=O)c1cccc(-c2nnc(SCC(=O)c3cc(C)n(C4CC4)c3C)o2)c1 | inconclusive: 5.8 µM [inhibitor, full curve] | –
2 | Cc1ccc(-c2nnn(CC(=O)N(Cc3ccc(F)cc3)C(C(=O)NC3CCCC3)c3ccncc3)n2)o1 (stereo not drawn) | inconclusive: 0.316 µM [inhibitor, partial curve, poor fit] | –
3 | Cc1ccc(CNC(=O)CSc2n[nH]c(-c3ccc(F)cc3)n2)cc1 | inconclusive: 10 µM [inhibitor, partial curve, poor fit] | –
4 | Cc1c2cnn(CC(=O)NCCCN3CC(C)CC(C)C3)c(=O)c2c(C)n1Cc1ccccc1Cl (stereo not drawn) | inconclusive: 35.5 µM [inhibitor, single point] | –
5 | COc1ccc(C2SCC(=O)N2CC23CC4CC(CC(C4)C2)C3)cc1 (stereo not drawn) | inconclusive: 5.8 µM [inhibitor, partial curve, poor fit] | –
6 | Cc1ccc(C2CC2c2n[nH]c(=S)n2-c2cccc(C)c2)cc1 (stereo not drawn) | inconclusive: 1.26 µM [inhibitor, partial curve, poor fit] | –
7 | CO/N=C/C(C(C)=O)C(=O)Nc1ccc(Cl)cc1Cl (stereo not drawn) | inconclusive: 28.2 µM [inhibitor, single point] | –
8 | Cc1ccc(NC(=S)NNC(=O)C2CC2c2ccc(C)cc2)cc1 (stereo not drawn) | inconclusive: 10.3 µM [inhibitor, partial curve, poor fit] | –
9 | CCN(CC)S(=O)(=O)c1ccc2c(c1)nc(CCC(=O)Nc1ccc3c(c1)OCO3)n2CC | inactive | –
10 | Cc1c(N2C(=O)c3ccc(F)cc3C2=O)c(=O)n(-c2ccccc2)n1C | inconclusive: 0.259 µM [inhibitor, partial curve, poor fit] | –
11 | O=C(NCCc1ccccc1Cl)c1ccc2c(c1)nc1n2CCCCC1 | inconclusive: 20 µM [inhibitor, single point] | –
12 | Fc1ccc(CN(Cc2ccccc2)C(c2cccs2)c2nnnn2C2CCCCC2)cc1 (stereo not drawn) | inconclusive: 29.1 µM [inhibitor, single point] | –
13 | COc1ccc(CN(C)CC(=O)Nc2ccc(SC(F)F)cc2)cc1OC | inconclusive: 35.5 µM [inhibitor, partial curve, poor fit] | –
14 | CCN(CC)c1ccc(/C=N/Nc2nc(C)cc(=O)[nH]2)c(O)c1 | active: 0.82 µM | –
15 | O=C(NCCc1ccccc1)c1oc2ccccc2c1COc1ccccc1 | inactive | –
16 | Cc1ccc(Nc2nc(C)nc(N)c2S(=O)(=O)c2ccccc2)cc1 | inactive | –
17 | CC(C)(C)c1ccc(C(=O)C=[N+]=[N-])cc1 | inconclusive: 8.91 µM [inhibitor, partial curve, poor fit] | –
18 | O=C(Cc1ccc(Br)cc1)NC1CCCc2ccccc21 (stereo not drawn) | inconclusive: 6.31 µM [inhibitor, partial curve, poor fit] | –
19 | Cc1ccc(-n2c(SCC(=O)NCCN3C(=O)CSC3=O)nnc2-c2ccccc2)cc1 | inactive | –
20 | CC12CC3CC(C)(C1)CC(CN)(C3)C2 | inconclusive: 35.5 µM [inhibitor, single point] | –
21 | CCN(CC)c1ccc(-c2nc(-c3ccccc3C)no2)cc1[N+](=O)[O-] | inactive | –
22 | COc1cc(/C=C/c2[nH]c(=O)[nH]c(=O)c2[N+](=O)[O-])ccc1OCCC(C)C | inconclusive: 15.8 µM [inhibitor, single point] | –
23 | COc1cc(CC(NC(C)=O)C(=O)NC2CCN(c3nc(C)cc(C)c3C#N)CC2)cc(OC)c1 (stereo not drawn) | inconclusive: 1.3 µM [activator, partial curve, poor fit] | –

Part of the list above in a different format:

| Row | Compound | Potency | activity change, negative = inhibition |
| --- | --- | --- | --- |
| 9 | CCN(CC)S(=O)(=O)c1ccc2c(c1)nc(CCC(=O)Nc1ccc3c(c1)OCO3)n2CC | inactive | – |
| 10 | Cc1c(N2C(=O)c3ccc(F)cc3C2=O)c(=O)n(-c2ccccc2)n1C | inconclusive: 0.259 µM [inhibitor, partial curve, poor fit] | – |

(next part)

Row | Compound | Potency | activity change, negative = inhibition
24 | CSc1ccc(C(=O)C2CCCN(C(=O)CCc3c(C)nn(C)c3C)C2)cc1 (stereo not drawn) | inconclusive: 8.91 µM [inhibitor, partial curve, poor fit] | –
25 | CCc1ccccc1N(CC)C(=O)CCc1nc(-c2ccc(C)cc2)no1 | active: 10 µM | –
26 | C=CCN1C(=NC(=O)CCCC(=O)O)SC2CS(=O)(=O)CC21 (stereo not drawn) | inconclusive: 1.78 µM [inhibitor, partial curve, poor fit] | –
27 | O=C1CC(c2ccc(Cl)cc2)n2nc(N3C(=O)CCC3=O)nc2N1 (stereo not drawn) | inconclusive: 0.0103 µM [activator, full curve, poor fit] | –
28 | Cc1cc(C)c(C)c(S(=O)(=O)N2CCC(C(=O)NNC(=O)c3ccccc3O)CC2)c1C | inconclusive: 2.51 µM [activator, partial curve, poor fit] | –
29 | COc1ccc(O)c(C(=O)c2cnn(-c3ccccc3)c2)c1 | inactive | –
30 | COc1ccc(NC(=O)CCOc2cc(C)ccc2C)cc1S(=O)(=O)N1CCCCC1 | inconclusive: 1.26 µM [inhibitor, full curve] | –
31 | O=c1[nH]c(=O)n(Cc2ccccc2)c(O)c1C=NCCCn1ccnc1 | inconclusive: 5.62 µM [activator, single point] | –
32 | CCCCN1C(=O)NC(NS(=O)(=O)c2ccc(N)cc2)(C(F)(F)F)C1=O (stereo not drawn) | inconclusive: 4.61 µM [inhibitor, single point] | –
33 | Clc1ccc2sc(C3CCNCC3)nc2c1 | inconclusive: 35.5 µM [activator, single point] | –
34 | COc1cc(C(=O)NCCC(c2ccccc2)c2ccccc2)cc(OC)c1OC | inconclusive: 35.5 µM [inhibitor, single point] | –
35 | COc1ccc(C(=O)NCC(=O)NCC(=O)OCC(=O)c2ccc(C)cc2)cc1 | inactive | –
36 | Cc1cc(=O)[nH]c2c1c(C)nn2C(C)(C)C | inconclusive: 2.82 µM [activator, full curve, poor fit] | –
37 | COc1ccc(N2CCN(c3ncnc4scc(-c5ccc(C)cc5)c34)CC2)cc1 | active: 10 µM | –
38 | Clc1ccc(-n2nnnc2Sc2ncnc3sccc23)cc1 | inconclusive: 22.4 µM [inhibitor, single point] | –
39 | C=CCN=C1NN=C(c2cc(C)n(CC=C)c2C)CS1 | inconclusive: 6.31 µM [inhibitor, partial curve, poor fit] | –
40 | COc1cc(/C=C/C(=O)c2c(O)n(CCc3ccccc3)c(=O)[nH]c2=O)ccc1O | inconclusive: 22.4 µM [inhibitor, single point] | –
41 | Cc1o[nH]c(=O)c1CC(N)C(=O)O (stereo not drawn) | inconclusive: 0.0411 µM [activator, full curve] | –
42 | Nc1nccc(-c2cc(-c3ccc(Cl)cc3Cl)no2)n1 | inconclusive: 10 µM [inhibitor, partial curve, poor fit] | –
43 | CC(C)c1ccc(CNc2ccc(N3CCOCC3)cc2)cc1 | inconclusive: 2.59 µM [inhibitor, full curve, poor fit] | –
44 | O=C1C(=NO)C(c2ccccc2)Oc2ccccc21 (stereo not drawn) | inactive | –
45 | CCOC(=O)c1sc2nc(N3CCOCC3)c3c(c2c1N)CCC3 | inactive | –
46 | Cc1ccc(NC(=O)C(C)Sc2nc(=O)cc(N)n2-c2ccccc2)cc1 (stereo not drawn) | inactive | –

By substructure: the compounds so far containing a tert-butyl group (two)
Row | Compound | Potency | activity change, negative = inhibition
17 | CC(C)(C)c1ccc(C(=O)C=[N+]=[N-])cc1 | inconclusive: 8.91 µM [inhibitor, partial curve, poor fit] | –
36 | Cc1cc(=O)[nH]c2c1c(C)nn2C(C)(C)C | inconclusive: 2.82 µM [activator, full curve, poor fit] | –

(cont.)

Row | Compound | Potency | activity change, negative = inhibition
47 | CCc1ccccc1Nc1cc(C(=O)NC(C)c2ccccc2)c2ccccc2n1 (stereo not drawn) | inconclusive: 35.5 µM [inhibitor, single point] | –
48 | COc1cc(C2c3c(-c4cc(C)ccc4O)n[nH]c3C(=O)N2CCCO)ccc1OCCC(C)C (stereo not drawn) | inconclusive: 1.12 µM [inhibitor, full curve, poor fit] | –
49 | CCCc1nn2c(=O)cc(COC(=O)c3ccccc3NC(=O)c3ccc(Cl)cc3)nc2s1 | inactive | –
50 | COc1ccc(CCNC(=O)c2ccc(OC)c(OC)c2)cc1OC | inactive | –
51 | CN1CCN(/N=C/c2c(O)n(CCC3=CCCCC3)c(=S)[nH]c2=O)CC1 | inconclusive: 0.794 µM [inhibitor, partial curve, poor fit] | –
52 | Cc1ccc(C)c(Nc2ncccc2C(=O)NCc2cccs2)c1 | inconclusive: 11.2 µM [inhibitor, partial curve] | –
53 | CCc1ccc2nc(NC(=O)CCCc3cccs3)sc2c1 | inconclusive: 2.82 µM [activator, full curve] | –
54 | COc1ccc2c(c1)CCCC2=O | inconclusive: 35.5 µM [inhibitor, single point] | –
55 | O=C(CSc1nc2ccccc2o1)c1ccc2c(c1)OCCO2 | inactive | –
56 | CN1C(=O)Cc2cc(S(=O)(=O)CCC(=O)Nc3ccc(F)c(Cl)c3)ccc21 | inconclusive: 35.5 µM [activator, single point] | –
57 | CCOC(=O)c1ccccc1NC(=O)CSc1nccn1C | inconclusive: 17.8 µM [activator, partial curve, poor fit] | –
58 | Cc1onc(-c2c(F)cccc2Cl)c1C(=O)OCC(=O)N1C(C)CCCC1C (stereo not drawn) | inconclusive: 3.55 µM [inhibitor, full curve] | –
59 | NC(=O)c1ccsc1NC(=O)c1ccc2c(c1)CCCC2 | inconclusive: 14.6 µM [inhibitor, single point] | –
60 | Cc1cc(NC(=O)c2ccccc2F)on1 | inactive | –
61 | CN(Cc1ccccc1)S(=O)(=O)c1ccc(NC(=O)C2CCCO2)cc1 (stereo not drawn) | inactive | –
62 | COc1ccc(C)cc1S(=O)(=O)N1CCCC(C(=O)NCc2ccccn2)C1 (stereo not drawn) | – | inconclusive: 1.92% [activator]
63 | O=C(Nc1nc2cc3c(cc2s1)OCCO3)c1ccco1 | active: 0.794 µM | –
64 | O=C(NC(C(=O)N/N=C/c1cc([N+](=O)[O-])ccc1O)c1n[nH]c(=O)c2ccccc12)c1ccccc1 (stereo not drawn) | inactive | –
65 | CC(C)OC(=O)CSc1ncnc2c1cnn2-c1ccccc1 | inactive | –
66 | Cc1nn(-c2ccccc2)c(C)c1/C=N/n1c(-c2ccccc2Br)n[nH]c1=S | active: 12.6 µM | –
67 | Cc1ccc(C(=O)CC2(O)C(=O)Nc3ccccc32)s1 (stereo not drawn) | inconclusive: 32.6 µM [activator, partial curve, poor fit] | –
68 | S=C(c1ccc(-c2ccc(Cl)cc2)o1)N1CCCCC1 | inconclusive: 29.1 µM [inhibitor, single point] | –

From PubChem BioAssay AID540256 (National Center for Advancing Translational Sciences (NCATS), 2011)
